Over roughly 1,600 compounds, “plate-normalized OD600 growth (mean of duplicates)” has its median near 0.31; the lowest 2% begin near 0.23. Some of the results follow.
Test system: Escherichia coli BW25113
Experiment: plate-normalized OD600 growth (mean of duplicates) (OD600 (normalized)); higher = more growth (less inhibition)
Conditions: 10 µM
Description: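 E. coli BW25113 in LB (100 µl, 96-well, no shaking) was exposed to 10 µM of each compound (here the ChemBridge subset of a ~30,000-member library) and grown at 37°C for 24 h or 15°C for 48 h, in duplicate. Growth was read as OD600 and the duplicate ODs were normalized across screening plates to correct plate-to-plate variation.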

| SMILES | plate-normalized OD600 growth (temperature: 15°C, 48 h) | plate-normalized OD600 growth (temperature: 37°C, 24 h) |
| --- | --- | --- |
| CC1(C)CC2CC(C)(CN2Cc2cccnc2)C1 (configuration not stated) | 0.24 | 0.61 |
| CN(C)c1ccc(CN2CCN(c3ccc(F)cc3)CC2)cc1 | 0.253 | 0.628 |
| OCCN1CCN(Cc2ccc(Cl)c(Cl)c2)CC1 | 0.234 | 0.611 |
| COc1ccccc1N1CCN(Cc2ccc(N(C)C)cc2)CC1 | 0.234 | 0.615 |
| Cc1ccc2c(c1)C1CN(C)CCC1N2 (configuration not stated) | 0.227 | 0.61 |
| OCCN1CCN(Cc2ccc(F)c(F)c2)CC1 | 0.247 | 0.612 |
| COc1ccc2c(c1)c(CCN)c(C)n2Cc1ccccc1 | 0.263 | 0.613 |
| CCCN1CCC(NC(C)CCCC(C)(C)O)CC1 (configuration not stated) | 0.296 | 0.653 |
| Cc1ccccc1-n1c(/C=C/c2ccccc2[N+](=O)[O-])nc2ccccc2c1=O | 0.239 | 0.651 |
| COC1CCCCC1NC1CCCCC1 (configuration not stated) | 0.234 | 0.614 |
| CCOc1ccc2c(c1)c(C(=O)O)c(C)n2C | 0.262 | 0.625 |
| CC(C)(C)C1CCC(N2CCOCC2)CC1 (configuration not stated) | 0.242 | 0.605 |
| Cc1[nH]c2ccccc2c1CCCNC1CCCCC1 | 0.264 | 0.644 |
| COc1ccc(Br)cc1CN1CCN(C)CC1 | 0.26 | 0.617 |
| O=C1NC(=O)C(c2ccccc2)(c2ccccc2)C(=O)N1 | 0.266 | 0.666 |
| O=C(CN1CCCC1=O)NCCc1ccccc1 | 0.261 | 0.645 |
| CCCN1CCC(NCC2CCCO2)CC1 (configuration not stated) | 0.264 | 0.665 |
| COc1ccc(N=C(C)c2c(O)[nH]c(=O)[nH]c2=O)cc1 | 0.242 | 0.607 |
| OCCN1CCN(Cc2ccc(Cl)cc2Cl)CC1 | 0.23 | 0.624 |
| Cc1cccc(CN2CCN(c3ccccc3)CC2)c1 | 0.223 | 0.663 |
| O=c1cccc2n1C[C@H]1C[C@H]2CN(Cc2cccc(Cl)c2Cl)C1 | 0.28 | 0.659 |

One compound at a time, as listed above. Values in the order: plate-normalized OD600 growth (temperature: 15°C, 48 h) | plate-normalized OD600 growth (temperature: 37°C, 24 h)
Cc1[nH]c2ccccc2c1CCCNC1CCCCC1 reads 0.264 | 0.644
COc1ccc(Br)cc1CN1CCN(C)CC1 reads 0.26 | 0.617

From the supplement of paper PMC4371806
